Reference: PubChem BioAssay AID2685 (National Center for Advancing Translational Sciences (NCATS), 2010)
This is one part of the list. The main result of the screen is listed elsewhere. These columns were measured beside it and carry no call. Compounds called inactive in the main read-out are mostly missing here. Words in brackets tell the shape of the fitted curve; partial curves, single points and poor fits give uncertain potencies.

Experiment: qHTS Assay for Lipid Storage Modulators in Drosophila S3 Cells;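 on cell number change: cells counted by Cell Tracker Red CMTPX staining in the red channel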
Settings: BODIPY lipid droplet fluorescence, 18-24 h; for cell number change: measured here: cell count max response, cells fed with added oleic acid
Procedure, shortened: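 Laser-scanning cytometry quantifies lipid droplet accumulation (500–530 nm total intensity; droplet/cell object ratio) in oleic acid-fed (400 uM added) Drosophila S3 cells treated with a concentration series. 20 uM Triacsin C defined 100% inhibition.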

[1] = measured here: lipid fluorescence (Fed channel) AC50, cells fed with added oleic acid
[2] = measured here: cell number channel AC50, cells fed with added oleic acid

Compound	cell number change	AC50 [1]	AC50 [2]
CCOC(=O)c1c(C)n(CCNC(C)=O)c2ccc(OC)cc12	11.1%	–	–
COc1ccccc1NS(=O)(=O)c1ccc(O)c(C(=O)OCC(=O)N2CCc3ccccc32)c1	12.3%	20.6 µM [rising, partial curve]	–
O=C(CSc1nnc(-c2ccc(OC(F)F)cc2)o1)NC(=O)NCc1ccco1	-19.5%	4.11 µM [falling, full curve, poor fit]	2.91 µM [falling, single point]
CCOc1ccc(CCNC(=O)COC(=O)CCc2cc(OC)c(OC)c(OC)c2)cc1OCC	-0.81%	0.731 µM [falling, full curve, poor fit]	–
COc1ccc(/C(C)=N/OCC(=O)Nc2nc3ccccc3s2)cc1OC	8.38%	–	–
CCOC(=O)[C@@H]1[C@H]2COc3cc(OC)ccc3[C@H]2N2C(=O)N(c3ccc(C(F)(F)F)cc3)C(=O)[C@@]12C	47.9%	29.1 µM [rising, single point]	8.2 µM [rising, partial curve, poor fit]
CCOc1ccc(/C=N/NC(=O)c2cc3c(OC)cccc3[nH]2)cc1	-91.9%	18.4 µM [falling, partial curve]	23.1 µM [falling, partial curve]
O=C(CN(Cc1cccs1)C(=O)CSc1nnc(COc2ccccc2)o1)NC1CCCC1	6.28%	6.51 µM [rising, full curve]	–
COc1ccc(CNC(=O)CCC(=O)Nc2ccc(Cl)cc2)cc1	-8.14%	–	–
CCOC(=O)C1=C(c2ccccc2)NC(SC)=C(C#N)C1c1cccnc1 (stereo not drawn)	14.7%	0.82 µM [rising, partial curve]	–
C/C(CC1(O)C(=O)Nc2ccccc21)=N\O (stereo not drawn)	–	0.651 µM [falling, single point]	–
Cc1c(OCC(=O)NCCCN2CCCC2=O)ccc2c3c(c(=O)oc12)CCC3	-12.7%	–	–
CCOC(=O)c1ccc(NC(=O)CSc2nnc(CNc3ccc(OC)cc3)n2C)cc1	-15.5%	–	–
Cc1cccc(OC(C)C(=O)Nc2nc(-c3ccncc3)cs2)c1 (stereo not drawn)	83.1%	–	8.2 µM [rising, partial curve]
Cc1ccc2nc(C)cc(C(=O)OCC(=O)c3ccc(Cl)c([N+](=O)[O-])c3)c2c1	34.8%	23.1 µM [rising, partial curve]	10.3 µM [rising, single point]
COc1ccccc1C1=NNC(=Nc2cccc(S(=O)(=O)N(C)C)c2)SC1	–	0.731 µM [falling, single point]	–
Cc1ccc(C)c(S(=O)(=O)Nc2cccc(-n3cnnn3)c2)c1	-10.5%	20.6 µM [falling, partial curve]	–
COc1ccc(NC(=O)CN(C)C(=O)c2cccc(S(=O)(=O)N3CCN(Cc4ccccc4)CC3)c2)cc1	18.4%	–	2.59 µM [rising, single point]
Cc1cc(C)n(C(C)n2nc(C)cc2C)n1	11.4%	18.4 µM [falling, single point]	–
CCOc1ccc(CNC2CCCc3ccccc32)cc1 (stereo not drawn)	57.1%	2.31 µM [rising, single point]	13 µM [rising, single point]

Compound	cell number change	AC50 [1]	AC50 [2]
Cc1ccc(N2CCN(CC(O)COc3cccc(C)c3)CC2)cc1 (stereo not drawn)	-37%	29.1 µM [falling, single point]	29.1 µM [falling, single point]
C=CCN(CC=C)C(=O)CN1C(=O)NC(c2ccccc2)(c2ccccc2)C1=O	-1.28%	–	–
COC(=O)CC(=O)N1CCN(c2ccc(Cl)c(Cl)c2)CC1	-6.27%	–	0.291 µM [falling, partial curve, poor fit]
CCCn1c(C(C)Nc2nc(-c3ccc(C)cc3)cs2)nc2cc(Cl)c(N3CCCCC3)cc21 (stereo not drawn)	20.4%	3.26 µM [rising, single point]	–
COc1ccccc1/C=C/C(=O)c1ccccc1	-63.8%	16.4 µM [falling, partial curve, poor fit]	25.9 µM [falling, partial curve]
COc1ccc(N2C(=O)CSC23C(=O)Nc2ccccc23)cc1OC (stereo not drawn)	-17.9%	0.411 µM [falling, partial curve]	–
COc1cccc(-n2nc(-c3ccnn3-c3ccccc3)c(=O)n(C)c2=O)c1	–	2.06 µM [rising, partial curve]	3.66 µM [rising, single point]
Cc1cccc(OCc2nnc(SCC(=O)N3CC(=O)Nc4ccccc43)o2)c1	16.6%	0.146 µM [rising, full curve, poor fit]	–
O=C1C2CC=CCC2C(=O)N1Cc1ccccc1Cl (stereo not drawn)	7.29%	–	–
Cc1[nH]n(-c2nc(-c3ccccc3)cc(=O)[nH]2)c(=O)c1CCO	2.21%	–	–
CC1CC1c1ccc(/C=C(\C#N)C(=O)Nc2ccc(Cl)cc2)o1 (stereo not drawn)	7.62%	0.058 µM [rising, full curve, poor fit]	3.66 µM [rising, single point]
CC1CC(C)CN(CCCNC(=O)c2ccc3nc(N4CCCCC4)sc3c2)C1 (stereo not drawn)	-8.38%	1.84 µM [falling, partial curve, poor fit]	–
O=C(CSc1nc2ccccc2c(=O)n1-c1ccccc1Cl)NCC1CCCO1 (stereo not drawn)	-9.3%	–	–
CN1C(=O)c2ccccc2Sc2ccc(C(=O)O)cc21	61.3%	–	29.1 µM [rising, single point]
O=C(O)CCC(=O)N1CCc2cc(S(=O)(=O)N3CC=C(c4ccccc4)CC3)ccc21	26.9%	8.2 µM [rising, partial curve, poor fit]	–
C/C=C/C(=O)OCC(=O)Nc1cccc(S(=O)(=O)NC2=NCCCCC2)c1	-2.8%	0.366 µM [rising, full curve, poor fit]	–
Cc1cc(C(=O)COc2cccnc2[N+](=O)[O-])c(C)n1Cc1ccco1	–	0.13 µM [rising, single point]	–
COc1ccc(CC(=O)OCC(=O)N2CCCC(C)C2)cc1 (stereo not drawn)	31%	–	32.6 µM [rising, single point]
CCC(=O)N(Cc1cc(=O)[nH]c2ccccc12)c1cccc(C)c1	32.4%	16.4 µM [rising, partial curve]	8.2 µM [rising, partial curve, poor fit]
COc1cccc2cc(C(=O)Nc3ccc(S(=O)(=O)NCC4CCCO4)cc3)c(=O)oc12 (stereo not drawn)	9.06%	0.231 µM [rising, full curve, poor fit]	–

Compound	cell number change	AC50 [1]	AC50 [2]
COc1ccc(CNC(=O)C[C@H]2C(=O)N(CCc3ccccc3)C[C@@H]2Cc2ccccc2)cc1	5.69%	–	–
COc1ccc(CCSc2nnc(C3CCCCC3)n2N)cc1	14.5%	–	–
CC(OC(=O)c1ccc2ncsc2c1)C(=O)N1CCCC1 (stereo not drawn)	–	2.59 µM [rising, single point]	–
CC(=O)c1ccc(NC(=O)NNS(=O)(=O)c2ccc([N+](=O)[O-])cc2)cc1	-13.3%	1.16 µM [falling, full curve]	–
c1ccc(-c2ccc(-c3nc(-c4cccnc4)no3)cc2)cc1	-30%	0.0326 µM [falling, full curve, poor fit]	–
CCCCCOC(=O)c1ccc(NC(=O)c2cccc(NC(=O)c3ccccc3C(=O)O)c2)cc1	-19.9%	–	–
Cc1cccc(NC(=S)NCc2ccncc2)c1C	64.1%	23.1 µM [rising, partial curve]	10.3 µM [rising, partial curve, poor fit]
Cc1ccc(SCCNS(C)(=O)=O)cc1	-0.625%	0.58 µM [rising, single point]	–
CCCCN1C(=O)C2(NNc3ccccc3O2)c2ccccc21 (stereo not drawn)	-59.2%	23.1 µM [falling, single point]	18.4 µM [falling, single point]
O=C(CSc1ncnc2scc(-c3ccccc3)c12)Nc1ccc(C(=O)O)cc1	22.9%	3.66 µM [falling, single point]	6.51 µM [falling, single point]
Cc1ccc(/C(O)=C2/C(=O)C(=O)N(c3ccccn3)C2c2ccc(F)cc2)cc1 (stereo not drawn)	8.11%	29.1 µM [rising, partial curve]	–
COc1ccc(NC(=O)c2cc(OC)c(OC)c(OC)c2Br)cc1OC	–	2.31 µM [rising, single point]	–
CC(=O)N1CC(c2ccccc2)C(c2ccc(Cl)cc2)=N1 (stereo not drawn)	1.07%	1.64 µM [falling, partial curve]	–
CC1CCN(C(=O)c2ccc(SCc3ccccc3F)c([N+](=O)[O-])c2)CC1	14%	10.3 µM [rising, partial curve, poor fit]	–
COCCN(C(=O)CCC(=O)Nc1cc(C)on1)C(C(=O)NC(C)(C)C)c1ccccc1Cl (stereo not drawn)	5.65%	–	–
C/C(=N\NC(=O)c1nn(C)cc1Br)c1cccc(NC(=O)c2ccncc2)c1	27%	6.51 µM [rising, partial curve]	–
O=C(CCN1C(=O)C2C3CCC(C3)C2C1=O)OCC(=O)c1cccc([N+](=O)[O-])c1 (stereo not drawn)	-38.9%	–	1.84 µM [falling, partial curve]
C#CCn1c(=NC(=O)c2ccccc2[N+](=O)[O-])sc2cc(S(C)(=O)=O)ccc21	117%	29.1 µM [falling, single point]	11.6 µM [rising, partial curve]
Cc1ccc(N(C(=O)CCC(=O)Nc2cc(C)on2)C(C(=O)NC2CCCC2)c2ccncc2)cc1 (stereo not drawn)	21.5%	0.651 µM [rising, full curve]	–

Full records, quoted from the list:
`c1ccc(-c2ccc(-c3nc(-c4cccnc4)no3)cc2)cc1` as listed: cell number change: -30%; AC50 [1]: 0.0326 µM [falling, full curve, poor fit]
`CC1CCN(C(=O)c2ccc(SCc3ccccc3F)c([N+](=O)[O-])c2)CC1` as listed: cell number change: 14%; AC50 [1]: 10.3 µM [rising, partial curve, poor fit]
`C/C(=N\NC(=O)c1nn(C)cc1Br)c1cccc(NC(=O)c2ccncc2)c1` as listed: cell number change: 27%; AC50 [1]: 6.51 µM [rising, partial curve]
`COCCN(C(=O)CCC(=O)Nc1cc(C)on1)C(C(=O)NC(C)(C)C)c1ccccc1Cl` (stereo not drawn) as listed: cell number change: 5.65%
